Where a name gives a salt, the structure may show the parent alone. The list shows a part of the results. Repeats are few or missing, and single values can be far off.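 Pooled together, 41 HAP1 clones carry intronic fluorescent tags on 61 cancer-associated proteins, and each clone is recognized by its imaging pattern. Measurements are benchmarked against DMSO-treated control wells. dBET6, a BRD4 degrader, served as the positive control.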
biological target: XPO1 (intron 15 mScarlet tag, HAP1) (UniProt O14980); experiment: XPO1 fluorescence intensity change vs DMSO (log2 fold change); higher = more XPO1 protein; details: 6 h

Protein sequences, listed by entry. Tags and fused reporters are not part of them.
UniProt O14980, whole entry: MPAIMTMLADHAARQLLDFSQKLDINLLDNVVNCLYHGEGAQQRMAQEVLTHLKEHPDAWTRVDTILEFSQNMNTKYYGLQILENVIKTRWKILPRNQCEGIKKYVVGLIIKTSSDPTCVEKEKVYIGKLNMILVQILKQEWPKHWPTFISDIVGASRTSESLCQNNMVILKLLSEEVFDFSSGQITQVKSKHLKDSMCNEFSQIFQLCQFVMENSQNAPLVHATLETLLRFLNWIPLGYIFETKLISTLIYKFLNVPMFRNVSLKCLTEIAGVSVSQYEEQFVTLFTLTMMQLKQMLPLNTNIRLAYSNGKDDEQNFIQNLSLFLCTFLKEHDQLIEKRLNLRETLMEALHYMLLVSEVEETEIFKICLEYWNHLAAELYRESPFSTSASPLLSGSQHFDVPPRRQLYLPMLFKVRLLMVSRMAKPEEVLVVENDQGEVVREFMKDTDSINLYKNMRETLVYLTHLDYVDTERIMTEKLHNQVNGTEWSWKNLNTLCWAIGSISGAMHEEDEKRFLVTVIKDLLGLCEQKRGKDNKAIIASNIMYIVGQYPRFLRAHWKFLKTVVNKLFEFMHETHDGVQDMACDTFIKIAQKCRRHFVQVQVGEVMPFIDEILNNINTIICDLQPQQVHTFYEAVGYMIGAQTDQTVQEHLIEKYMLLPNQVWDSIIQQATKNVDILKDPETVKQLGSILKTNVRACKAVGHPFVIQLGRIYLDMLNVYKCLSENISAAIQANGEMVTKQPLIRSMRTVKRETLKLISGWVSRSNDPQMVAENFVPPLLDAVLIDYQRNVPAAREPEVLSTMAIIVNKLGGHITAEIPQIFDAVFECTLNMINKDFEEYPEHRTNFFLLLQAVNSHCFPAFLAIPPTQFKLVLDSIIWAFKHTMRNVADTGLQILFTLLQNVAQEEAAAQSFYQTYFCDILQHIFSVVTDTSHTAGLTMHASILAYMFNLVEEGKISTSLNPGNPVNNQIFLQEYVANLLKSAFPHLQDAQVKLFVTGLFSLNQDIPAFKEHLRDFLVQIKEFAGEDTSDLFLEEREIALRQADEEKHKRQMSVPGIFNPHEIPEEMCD

SMILES | XPO1 fluorescence intensity change (log2)
CC(C)C(=O)Nc1ccc([N+](=O)[O-])c(C(F)(F)F)c1 [Flutamide] (20 µM) | 0.021
CCC(=O)NCC[C@@H]1CCc2ccc3c(c21)CCO3 [Ramelteon] (10 µM) | 0.00256
CC1(C)N=C(N)N=C(N)N1c1ccc(Cl)cc1 [Cycloguanil] (11.4 µM) | 0.0106
O=C(O)[C@H]1O[C@@H](Oc2ccc([C@@H]3[C@@H](CC[C@H](O)c4ccc(F)cc4)C(=O)N3c3ccc(F)cc3)cc2)[C@H](O)[C@@H](O)[C@@H]1O [Ezetimibe Glucuronide] (10 µM) | -0.0564
CCCCCCCN(CC)CCCC(O)c1ccc(NS(C)(=O)=O)cc1 (centres undefined) [Ibutilide] (10.00092008 µM) | 0.0421
CC[C@]1(O)C[C@@H]2CN(CCc3c([nH]c4ccccc34)[C@@](C(=O)OC)(c3cc4c(cc3OC)N(C)[C@H]3[C@@](O)(C(=O)OC)[C@H](OC(C)=O)[C@]5(CC)C=CCN6CC[C@]43[C@@H]65)C2)C1 [Vinblastine Sulfate] (0.73008 µM) | 0.102
C[N+](C)(C)CCOC(=O)CCC(=O)OCC[N+](C)(C)C [Succinylcholine Chloride] (10 µM) | -0.0774
O=C1CCCC(=O)C1C(=O)c1ccc(C(F)(F)F)cc1[N+](=O)[O-] [Nitisinone] (10 µM) | -0.209
COC(=O)[C@H](c1ccccc1Cl)N1CCc2sccc2C1 [Clopidogrel] (9.99986 µM) | 0.0798
Cc1ccc(Nc2nccc(N(C)c3ccc4c(C)n(C)nc4c3)n2)cc1S(N)(=O)=O [Pazopanib] (11.455 µM) | -0.0226
CN[C@H]1CC[C@@H](c2ccc(Cl)c(Cl)c2)c2ccccc21 [Sertraline] (9.99956 µM) | 0.0957
CCOC(=O)c1ncn2c1CN(C)C(=O)c1cc(F)ccc1-2 [Flumazenil] (10.00035031 µM) | -0.0896
C[C@@H](O[C@H]1OCCN(Cc2n[nH]c(=O)[nH]2)[C@H]1c1ccc(F)cc1)c1cc(C(F)(F)F)cc(C(F)(F)F)c1 [Aprepitant] (10 µM) | 0.111
COCCCOc1cc(C[C@@H](C[C@H](N)[C@@H](O)C[C@H](C(=O)NCC(C)(C)C(N)=O)C(C)C)C(C)C)ccc1OC [Aliskiren] (10.0003 µM) | 0.0222
CNC(=C[N+](=O)[O-])NCCSCc1csc(CN(C)C)n1 [Nizatidine] (10 µM) | -0.172
CN(C)c1nc(N(C)C)nc(N(C)C)n1 [Altretamine] (20 µM) | -0.0416
Cc1cn[nH]c1 [Fomepizole] (10 µM) | -0.0585
COc1ccc2c3c1O[C@H]1C[C@@H](O)C=C[C@@]31CCN(C)C2 [Galantamine] (10 µM) | -0.133
CC(=O)c1c(C)c2cnc(Nc3ccc(N4CCNCC4)cn3)nc2n(C2CCCC2)c1=O [Palbociclib] (10 µM) | 0.0405
Cn1c(=O)c2nc[nH]c2n(C)c1=O [Theophylline] (10 µM) | 0.117

Nothing new here: entries from further up.
SMILES | XPO1 fluorescence intensity change (log2)
CNC(=C[N+](=O)[O-])NCCSCc1csc(CN(C)C)n1 [Nizatidine] (10 µM) | -0.172
CN(C)c1nc(N(C)C)nc(N(C)C)n1 [Altretamine] (20 µM) | -0.0416
Cc1cn[nH]c1 [Fomepizole] (10 µM) | -0.0585

Following part.

SMILES | XPO1 fluorescence intensity change (log2)
COc1ccccc1OCC(O)CN1CCN(CC(=O)Nc2c(C)cccc2C)CC1 (centres undefined) [Ranolazine] (10 µM) | 0.0518
Cc1cc(Nc2ncc(Cl)c(Nc3ccccc3S(=O)(=O)C(C)C)n2)c(OC(C)C)cc1C1CCNCC1 [Ceritinib] (10 µM) | 0.0804
CO[C@@H]1[C@@H](OC(N)=O)[C@@H](O)[C@H](Oc2ccc3c(O)c(NC(=O)c4ccc(O)c(CC=C(C)C)c4)c(=O)oc3c2C)OC1(C)C [Novobiocin] (10 µM) | 0.122
CO[C@H]1C[C@@H]2CC[C@@H](C)[C@@](O)(O2)C(=O)C(=O)N2CCCC[C@H]2C(=O)O[C@H]([C@H](C)C[C@@H]2CC[C@@H](OCCO)[C@H](OC)C2)CC(=O)[C@H](C)/C=C(\C)[C@@H](O)[C@@H](OC)C(=O)[C@H](C)C[C@H](C)/C=C/C=C/C=C/1C [Everolimus] (20 µM) | -0.0243
Cc1nnc(C(C)C)n1C1C[C@H]2CC[C@@H](C1)N2CC[C@H](NC(=O)C1CCC(F)(F)CC1)c1ccccc1 (stereo in doubt) [Maraviroc] (10 µM) | 0.0878
CC(C)(Oc1ccc(Cl)cc1)C(=O)O [Clofibric Acid] (10 µM) | -0.0429
S=P(N1CC1)(N1CC1)N1CC1 [Thiotepa] (20 µM) | 0.00624
CC(=O)Nc1cccc(-n2c(=O)n(C3CC3)c(=O)c3c(Nc4ccc(I)cc4F)n(C)c(=O)c(C)c32)c1 [Trametinib] (10 µM) | 0.206
COc1cc2ncnc(Nc3ccc(F)c(Cl)c3)c2cc1OCCCN1CCOCC1 [Gefitinib] (20 µM) | -0.0432
CCOC(=O)C(C)(C)Oc1ccc(Cl)cc1 [Clofibrate] (10 µM) | 0.126
COC(=O)C1=C(C)NC(C)=C(C(=O)OCC(C)C)C1c1ccccc1[N+](=O)[O-] (centres undefined) [Nisoldipine] (9.99911 µM) | -0.0526
COc1cc(N)c(Cl)cc1C(=O)NC1CCNCC1OC (centres undefined) [Norcisapride] (7.74983 µM) | -0.114
CCOC(=O)C1=C[C@@H](OC(CC)CC)[C@H](NC(C)=O)[C@@H](N)C1 [Oseltamivir] (9.9999 µM) | 0.198
CC(=O)c1ccc(S(=O)(=O)NC(=O)NC2CCCCC2)cc1 [Acetohexamide] (10 µM) | 0.0385
C[C@]12C=CC(=O)N[C@@H]1CC[C@@H]1[C@@H]2CC[C@]2(C)[C@@H](C(=O)Nc3cc(C(F)(F)F)ccc3C(F)(F)F)CC[C@@H]12 [Dutasteride] (9.99927 µM) | 0.119
NC(=O)c1cnccn1 [Pyrazinamide] (10 µM) | 0.169
CN(Cc1cnc2nc(N)nc(N)c2n1)c1ccc(C(=O)N[C@@H](CCC(=O)O)C(=O)O)cc1 [Methotrexate] (0.04575 µM) | 0.216
CN1CCN(CCCN2c3ccccc3Sc3ccc(C(F)(F)F)cc32)CC1 [Trifluoperazine] (10.00057696 µM) | 0.0223
CN1CC2c3ccccc3Oc3ccc(Cl)cc3C2C1 (centres undefined) [Asenapine] (10.00077168 µM) | 0.0825

Source: the supplement of paper PMC11098740
